# No constants are given. Whether binding was seen depends on the method and setting. Binding seen in cells or lysates may run through a third protein. Some binding calls cover weakened binding; strength is not graded here. Where a sequence is shown, tags or fusion partners need not be part of it.
# Sequences of proteins named here, by UniProt entry; tags and fusion partners are left off. A change or cut given only in a name is not applied to a line headed by its entry. A line that says so, or that is headed by a name, gives the form on record, which may keep a tag or linker.
# UniProt Q676U5: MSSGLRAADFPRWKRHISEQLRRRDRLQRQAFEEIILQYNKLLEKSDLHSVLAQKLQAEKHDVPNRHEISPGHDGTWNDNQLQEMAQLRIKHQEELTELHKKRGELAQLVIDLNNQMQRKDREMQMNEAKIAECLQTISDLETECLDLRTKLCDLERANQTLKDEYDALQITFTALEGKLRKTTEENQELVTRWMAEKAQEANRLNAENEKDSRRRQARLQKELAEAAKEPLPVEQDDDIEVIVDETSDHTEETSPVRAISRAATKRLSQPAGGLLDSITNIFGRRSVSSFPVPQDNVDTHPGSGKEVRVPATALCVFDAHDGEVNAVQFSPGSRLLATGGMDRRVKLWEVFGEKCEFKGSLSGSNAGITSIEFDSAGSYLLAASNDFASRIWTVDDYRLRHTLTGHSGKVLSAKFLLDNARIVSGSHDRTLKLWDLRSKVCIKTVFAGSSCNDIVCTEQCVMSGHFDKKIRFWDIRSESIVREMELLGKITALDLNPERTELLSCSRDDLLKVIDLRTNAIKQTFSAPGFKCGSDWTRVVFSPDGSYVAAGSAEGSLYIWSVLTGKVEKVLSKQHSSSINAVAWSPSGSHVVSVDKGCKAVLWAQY
# GST-ATG16L1-A300 (Q676U5, form named): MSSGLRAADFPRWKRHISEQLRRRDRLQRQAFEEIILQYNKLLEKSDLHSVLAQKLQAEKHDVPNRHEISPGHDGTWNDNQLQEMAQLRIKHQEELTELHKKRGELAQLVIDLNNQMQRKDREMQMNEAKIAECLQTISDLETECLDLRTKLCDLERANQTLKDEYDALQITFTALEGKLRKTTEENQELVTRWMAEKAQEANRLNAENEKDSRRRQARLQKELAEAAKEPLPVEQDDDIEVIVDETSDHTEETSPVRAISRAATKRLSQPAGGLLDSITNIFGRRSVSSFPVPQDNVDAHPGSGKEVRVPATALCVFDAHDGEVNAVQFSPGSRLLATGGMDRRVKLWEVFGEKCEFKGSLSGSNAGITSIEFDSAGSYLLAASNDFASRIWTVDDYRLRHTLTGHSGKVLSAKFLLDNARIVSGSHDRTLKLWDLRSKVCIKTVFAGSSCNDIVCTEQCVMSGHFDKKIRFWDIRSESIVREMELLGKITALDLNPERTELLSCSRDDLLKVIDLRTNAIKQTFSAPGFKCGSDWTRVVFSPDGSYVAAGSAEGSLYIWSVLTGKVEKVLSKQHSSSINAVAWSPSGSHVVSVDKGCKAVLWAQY
# B1: TMEM59 (found in GST-ATG16L1 precipitates) (protein, UniProt Q9BXS4 36-323)
# chain: EAFDSVLGDTASCHRACQLTYPLHTYPKEEELYACQRGCRLFSICQFVDDGIDLNRTKLECESACTEAYSQSDEQYACHLGCQNQLPFAELRQEQLMSLMPKMHLLFPLTLVRSFWSDMMDSAQSFITSSWTFYLQADDGKIVIFQSKPEIQYAPHLEQEPTNLRESSLSKMSYLQMRNSQAHRNFLEDGESDGFLRCLSLNSGWILTTTLVLSVMVLLWICCATVATAVEQYVPSEKLSIYGDLEFMNEQKLNRYPASSLVVVRSKTEDHEEAGPLPTKVNLAHSEI
# Key:
# [1] = target: GST-ATG16L1 (T300 form) (human) (UniProt Q676U5); assay: co-IP; HEK-293T cells transfected with both partners and lysed 36 h after transfection (1% Igepal CA-630, 50 mM Tris HCl pH 7.5, 150 mM NaCl, 5 mM EDTA); lysate diluted to 0.2% detergent; the GST fusion precipitated on glutathione-agarose (4 °C, 1-3 h); immunoblot
# [2] = target: GST-ATG16L1-A300 (human) (UniProt Q676U5); assay: as above
binder,measurement,setting,value
B1,binding,[1],binds
same,binding,[2],binds
